In paper PMC6499816, “Molecular determinants regulating selective binding of autophagy adapters and receptors to ATG8 proteins” (Nature Communications, 2019):
Results are given in words; binding and its absence hold for the method and conditions named. Binding seen in cells or lysates may run through a third protein. Some results given as binding are weak or reduced against the parent protein; the word gives no strength.

Amino acid sequences for entries named in this document (tags omitted). A change or cut given only in a name is not applied to a line headed by its entry. Chains listed by the source or under a name are the forms on record and can include a tag or linker. Residues count along the entry.
UniProt Q9BXW4, residues 1-126: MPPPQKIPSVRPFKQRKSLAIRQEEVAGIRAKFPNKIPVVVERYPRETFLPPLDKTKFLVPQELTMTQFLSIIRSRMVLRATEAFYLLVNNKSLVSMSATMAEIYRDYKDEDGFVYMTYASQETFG
GFP-PCM1 D1954A/F1955A/V1958A (Q15154-5, form named): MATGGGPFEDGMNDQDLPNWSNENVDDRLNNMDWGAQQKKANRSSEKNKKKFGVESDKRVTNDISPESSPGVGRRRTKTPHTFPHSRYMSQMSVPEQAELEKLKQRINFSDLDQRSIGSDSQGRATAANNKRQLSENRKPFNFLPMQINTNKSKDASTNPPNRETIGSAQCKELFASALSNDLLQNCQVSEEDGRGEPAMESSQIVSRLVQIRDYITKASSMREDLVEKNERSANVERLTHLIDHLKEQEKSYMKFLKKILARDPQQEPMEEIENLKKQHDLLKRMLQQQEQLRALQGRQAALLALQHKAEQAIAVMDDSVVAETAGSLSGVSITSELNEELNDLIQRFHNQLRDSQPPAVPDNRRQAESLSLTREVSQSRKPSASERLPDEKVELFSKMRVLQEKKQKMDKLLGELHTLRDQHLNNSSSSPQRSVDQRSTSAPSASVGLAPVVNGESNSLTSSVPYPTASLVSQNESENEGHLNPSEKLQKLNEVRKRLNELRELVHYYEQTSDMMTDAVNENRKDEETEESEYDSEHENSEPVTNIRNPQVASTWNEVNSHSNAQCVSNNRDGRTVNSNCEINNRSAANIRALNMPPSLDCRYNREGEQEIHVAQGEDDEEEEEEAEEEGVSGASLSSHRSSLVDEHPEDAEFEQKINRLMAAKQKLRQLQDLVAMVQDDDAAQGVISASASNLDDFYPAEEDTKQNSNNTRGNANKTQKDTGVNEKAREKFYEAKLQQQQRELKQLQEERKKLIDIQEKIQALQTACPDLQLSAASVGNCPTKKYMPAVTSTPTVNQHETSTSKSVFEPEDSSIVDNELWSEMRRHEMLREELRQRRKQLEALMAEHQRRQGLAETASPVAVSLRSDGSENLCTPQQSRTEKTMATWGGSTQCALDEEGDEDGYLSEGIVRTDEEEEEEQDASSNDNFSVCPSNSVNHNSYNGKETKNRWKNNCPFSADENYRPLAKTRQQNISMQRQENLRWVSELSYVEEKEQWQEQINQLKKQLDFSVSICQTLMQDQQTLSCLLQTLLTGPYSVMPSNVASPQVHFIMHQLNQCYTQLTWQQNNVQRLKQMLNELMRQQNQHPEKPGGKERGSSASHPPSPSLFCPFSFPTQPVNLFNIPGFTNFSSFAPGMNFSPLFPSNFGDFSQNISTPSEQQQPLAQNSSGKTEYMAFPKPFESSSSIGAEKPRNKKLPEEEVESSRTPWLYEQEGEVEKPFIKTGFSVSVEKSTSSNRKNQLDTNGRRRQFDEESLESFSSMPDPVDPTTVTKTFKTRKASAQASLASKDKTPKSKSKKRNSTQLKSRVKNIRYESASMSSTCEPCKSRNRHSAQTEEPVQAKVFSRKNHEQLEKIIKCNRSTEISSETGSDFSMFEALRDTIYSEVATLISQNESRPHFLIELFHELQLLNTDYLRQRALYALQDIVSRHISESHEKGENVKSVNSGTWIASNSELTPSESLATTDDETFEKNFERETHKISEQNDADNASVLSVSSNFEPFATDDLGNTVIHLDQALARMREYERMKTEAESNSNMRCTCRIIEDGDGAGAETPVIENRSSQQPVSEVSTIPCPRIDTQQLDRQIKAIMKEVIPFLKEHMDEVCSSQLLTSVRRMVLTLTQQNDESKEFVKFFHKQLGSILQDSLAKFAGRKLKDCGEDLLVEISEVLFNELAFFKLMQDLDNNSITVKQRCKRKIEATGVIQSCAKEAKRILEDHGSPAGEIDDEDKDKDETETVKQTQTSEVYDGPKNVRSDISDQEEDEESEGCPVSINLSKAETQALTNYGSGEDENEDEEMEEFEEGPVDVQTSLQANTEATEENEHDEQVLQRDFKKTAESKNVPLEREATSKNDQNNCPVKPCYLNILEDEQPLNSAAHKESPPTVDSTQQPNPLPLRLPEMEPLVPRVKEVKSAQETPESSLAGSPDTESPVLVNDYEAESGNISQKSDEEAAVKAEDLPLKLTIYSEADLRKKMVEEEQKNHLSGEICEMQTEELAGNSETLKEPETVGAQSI
GFP-PCM1 K1957I (Q15154-5, form named): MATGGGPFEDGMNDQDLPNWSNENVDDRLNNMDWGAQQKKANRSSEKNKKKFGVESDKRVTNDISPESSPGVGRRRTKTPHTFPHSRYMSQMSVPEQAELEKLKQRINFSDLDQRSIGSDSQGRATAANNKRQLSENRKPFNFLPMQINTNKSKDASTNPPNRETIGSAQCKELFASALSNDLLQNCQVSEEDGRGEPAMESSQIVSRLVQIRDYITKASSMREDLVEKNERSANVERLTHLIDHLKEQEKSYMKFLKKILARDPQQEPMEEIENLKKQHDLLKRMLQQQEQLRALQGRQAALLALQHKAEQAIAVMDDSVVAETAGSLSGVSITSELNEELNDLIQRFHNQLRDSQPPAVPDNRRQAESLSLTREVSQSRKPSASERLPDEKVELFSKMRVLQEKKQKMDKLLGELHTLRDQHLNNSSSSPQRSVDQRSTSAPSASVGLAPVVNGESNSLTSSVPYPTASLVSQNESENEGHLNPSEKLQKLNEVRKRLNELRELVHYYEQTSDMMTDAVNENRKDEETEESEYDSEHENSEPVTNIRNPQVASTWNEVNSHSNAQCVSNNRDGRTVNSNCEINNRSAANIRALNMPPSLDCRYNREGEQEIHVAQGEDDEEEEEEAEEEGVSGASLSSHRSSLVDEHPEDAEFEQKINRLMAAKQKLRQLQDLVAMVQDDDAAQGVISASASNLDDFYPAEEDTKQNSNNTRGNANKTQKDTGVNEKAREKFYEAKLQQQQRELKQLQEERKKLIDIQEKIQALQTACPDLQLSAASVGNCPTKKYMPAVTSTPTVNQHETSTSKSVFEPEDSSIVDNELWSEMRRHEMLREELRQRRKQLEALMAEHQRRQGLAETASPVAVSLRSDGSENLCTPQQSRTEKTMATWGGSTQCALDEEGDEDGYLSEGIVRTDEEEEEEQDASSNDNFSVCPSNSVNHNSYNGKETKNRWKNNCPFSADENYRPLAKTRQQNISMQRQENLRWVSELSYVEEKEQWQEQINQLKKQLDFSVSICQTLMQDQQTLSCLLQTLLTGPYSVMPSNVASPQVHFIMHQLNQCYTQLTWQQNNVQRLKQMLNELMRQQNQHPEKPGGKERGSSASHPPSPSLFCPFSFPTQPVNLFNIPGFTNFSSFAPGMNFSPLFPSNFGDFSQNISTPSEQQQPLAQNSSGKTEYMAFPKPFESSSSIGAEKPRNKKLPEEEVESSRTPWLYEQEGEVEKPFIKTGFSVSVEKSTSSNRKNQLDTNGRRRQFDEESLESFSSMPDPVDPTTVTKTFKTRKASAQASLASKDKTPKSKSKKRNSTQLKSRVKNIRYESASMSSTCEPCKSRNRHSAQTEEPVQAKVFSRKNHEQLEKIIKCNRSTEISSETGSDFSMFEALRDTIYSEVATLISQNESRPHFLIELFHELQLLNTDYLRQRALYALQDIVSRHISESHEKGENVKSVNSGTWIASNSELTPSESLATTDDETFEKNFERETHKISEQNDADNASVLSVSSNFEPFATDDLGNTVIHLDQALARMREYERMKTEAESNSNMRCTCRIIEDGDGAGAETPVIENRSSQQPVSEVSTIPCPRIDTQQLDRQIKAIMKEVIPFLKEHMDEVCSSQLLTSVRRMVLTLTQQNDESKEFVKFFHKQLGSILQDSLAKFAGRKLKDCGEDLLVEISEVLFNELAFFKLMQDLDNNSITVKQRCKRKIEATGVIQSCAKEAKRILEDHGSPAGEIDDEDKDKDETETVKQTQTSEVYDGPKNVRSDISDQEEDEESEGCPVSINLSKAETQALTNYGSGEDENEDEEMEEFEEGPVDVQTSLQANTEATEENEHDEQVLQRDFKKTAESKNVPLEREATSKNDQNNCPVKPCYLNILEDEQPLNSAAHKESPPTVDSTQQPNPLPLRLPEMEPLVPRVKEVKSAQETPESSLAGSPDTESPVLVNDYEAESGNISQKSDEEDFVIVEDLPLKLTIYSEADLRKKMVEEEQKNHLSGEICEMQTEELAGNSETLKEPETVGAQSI
PCM1 (pericentriolar material 1) (Q15154-5, form named): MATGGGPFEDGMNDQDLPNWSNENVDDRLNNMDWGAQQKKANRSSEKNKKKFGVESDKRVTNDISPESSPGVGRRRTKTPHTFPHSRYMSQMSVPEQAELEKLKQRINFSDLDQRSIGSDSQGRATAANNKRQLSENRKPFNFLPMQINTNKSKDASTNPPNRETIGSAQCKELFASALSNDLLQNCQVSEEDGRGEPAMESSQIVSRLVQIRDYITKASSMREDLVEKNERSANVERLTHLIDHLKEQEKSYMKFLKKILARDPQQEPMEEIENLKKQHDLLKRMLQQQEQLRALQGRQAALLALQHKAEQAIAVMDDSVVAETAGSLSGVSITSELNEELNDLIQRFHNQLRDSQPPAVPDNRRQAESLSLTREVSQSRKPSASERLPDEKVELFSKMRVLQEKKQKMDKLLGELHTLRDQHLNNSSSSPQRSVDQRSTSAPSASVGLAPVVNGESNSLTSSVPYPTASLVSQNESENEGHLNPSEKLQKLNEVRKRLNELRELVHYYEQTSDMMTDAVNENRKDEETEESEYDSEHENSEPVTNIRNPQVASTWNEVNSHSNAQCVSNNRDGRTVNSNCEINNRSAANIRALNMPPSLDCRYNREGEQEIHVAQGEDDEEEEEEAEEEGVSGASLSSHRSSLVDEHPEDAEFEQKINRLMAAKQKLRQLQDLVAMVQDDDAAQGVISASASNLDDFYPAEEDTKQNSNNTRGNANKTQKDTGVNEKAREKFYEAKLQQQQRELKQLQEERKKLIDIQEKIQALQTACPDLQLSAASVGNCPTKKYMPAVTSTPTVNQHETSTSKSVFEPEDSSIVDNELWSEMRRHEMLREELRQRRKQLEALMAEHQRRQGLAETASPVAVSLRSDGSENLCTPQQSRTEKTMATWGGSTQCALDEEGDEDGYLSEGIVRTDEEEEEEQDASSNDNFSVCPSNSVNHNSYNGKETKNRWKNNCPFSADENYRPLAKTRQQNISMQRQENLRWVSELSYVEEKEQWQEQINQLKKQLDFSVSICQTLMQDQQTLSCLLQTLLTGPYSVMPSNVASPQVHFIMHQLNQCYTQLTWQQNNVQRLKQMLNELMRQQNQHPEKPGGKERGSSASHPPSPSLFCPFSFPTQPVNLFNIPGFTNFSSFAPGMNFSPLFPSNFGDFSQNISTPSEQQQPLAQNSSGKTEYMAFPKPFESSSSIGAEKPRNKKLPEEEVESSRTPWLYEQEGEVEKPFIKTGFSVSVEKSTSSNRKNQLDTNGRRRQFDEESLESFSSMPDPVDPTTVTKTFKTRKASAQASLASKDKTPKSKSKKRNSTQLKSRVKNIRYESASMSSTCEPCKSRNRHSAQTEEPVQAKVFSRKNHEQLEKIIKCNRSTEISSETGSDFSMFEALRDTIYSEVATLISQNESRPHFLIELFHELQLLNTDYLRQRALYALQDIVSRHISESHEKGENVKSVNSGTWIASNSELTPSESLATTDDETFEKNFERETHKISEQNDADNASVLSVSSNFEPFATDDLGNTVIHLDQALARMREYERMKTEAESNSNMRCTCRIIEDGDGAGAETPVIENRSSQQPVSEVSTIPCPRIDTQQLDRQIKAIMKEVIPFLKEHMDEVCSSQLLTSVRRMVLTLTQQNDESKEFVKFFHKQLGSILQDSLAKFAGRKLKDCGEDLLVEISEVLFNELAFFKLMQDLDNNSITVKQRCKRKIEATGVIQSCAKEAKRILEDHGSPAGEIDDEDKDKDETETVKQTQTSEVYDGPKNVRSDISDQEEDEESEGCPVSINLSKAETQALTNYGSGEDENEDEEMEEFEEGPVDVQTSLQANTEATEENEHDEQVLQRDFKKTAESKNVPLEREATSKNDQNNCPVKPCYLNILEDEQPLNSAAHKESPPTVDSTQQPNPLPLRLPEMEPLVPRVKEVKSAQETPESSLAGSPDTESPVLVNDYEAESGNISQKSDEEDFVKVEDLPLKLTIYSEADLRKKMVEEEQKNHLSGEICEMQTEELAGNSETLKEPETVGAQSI

Columns and labels:
MYC-GABARAP (human) = MYC-GABARAP (human) (UniProt O95166); experiment: co-IP; MYC-Trap beads, lysates of HEK293A cells expressing MYC-ATG8 constructs, TNTE buffer, 2 h at 4 °C; immunoblot of bound proteins
MYC-GABARAP-L2 (human) = MYC-GABARAP-L2 (human) (UniProt P60520); experiment: as above
MYC-LC3A (human) = MYC-LC3A (human) (UniProt Q9H492); experiment: as above
MYC-LC3C (human) = MYC-LC3C (human) (UniProt Q9BXW4); experiment: as above
GFP-GABARAP (human) = GFP-GABARAP (human) (UniProt O95166); experiment: co-IP; GFP-TRAP beads, lysates of HEK293A cells expressing GFP-GABARAP or GFP-LC3B constructs, TNTE buffer, 2 h at 4 °C; immunoblot of endogenous proteins, quantified
[1] = molecular target: GFP-GABARAP E8R/H9R (human) (UniProt O95166); experiment: as above
GFP-GABARAP Q59E (human) = GFP-GABARAP Q59E (human) (UniProt O95166); experiment: as above
GST-GABARAP-L2 (human) = GST-GABARAP-L2 (human) (UniProt P60520); experiment: pull-down; 50 µg GST-ATG8 on Glutathione-Sepharose 4B beads, HEK293A lysate overnight at 4 °C, washes in TNTE; immunoblot; only the target purified
GST-LC3A (human) = GST-LC3A (human) (UniProt Q9H492); experiment: as above
GST-LC3C (human) = GST-LC3C (human) (UniProt Q9BXW4); experiment: as above

Substance | binding (MYC-GABARAP (human)) | binding (MYC-GABARAP-L2 (human)) | binding (MYC-LC3A (human)) | binding (MYC-LC3C (human)) | binding (GFP-GABARAP (human)) | binding [1] | binding (GFP-GABARAP Q59E (human)) | binding (GST-GABARAP-L2 (human)) | binding (GST-LC3A (human)) | binding (GST-LC3C (human))
FIP200 (from UniProt Q8TDY2 1-1594) | binds | binds | binds weakly | binds | binds | binds | binds | – | – | –
GFP-PCM1 D1954A/F1955A/V1958A (from UniProt Q15154-5 1-2016) | – | – | – | – | – | – | – | no binding | no binding | no binding
GFP-PCM1 wild type (from UniProt Q15154-5 1-2016) | – | – | – | – | – | – | – | binds | – | binds
PCM1 (pericentriolar material 1) (from UniProt Q15154-5 1-2016) | – | binds | binds weakly | binds | – | – | – | – | – | –

Second part, the substance after the results:

binding (MYC-GABARAP (human)) | binding (MYC-GABARAP-L2 (human)) | binding (MYC-LC3A (human)) | binding (MYC-LC3C (human)) | binding (GFP-GABARAP (human)) | binding [1] | binding (GFP-GABARAP Q59E (human)) | binding (GST-GABARAP-L2 (human)) | binding (GST-LC3A (human)) | binding (GST-LC3C (human)) | Substance
– | – | – | – | – | – | – | binds | binds | binds | GFP-PCM1 K1957I (from UniProt Q15154-5 1-2016)
– | binds | binds | binds | – | – | – | – | – | – | p62 (SQSTM1) (from UniProt Q13501 1-440)
